{
  "source": "PubChem BioAssay (NCATS)",
  "note": "Values joined by “and” are separate entries in the source; they are usually repeats but may differ in a detail not shown here. Equal entries are not always repeated. The list shows a part of the results. Further columns of the screen follow, without active or inactive calls. Compounds called inactive in the main read-out are mostly missing here.",
  "data": [
    {"assay": "qHTS assay for small molecule agonists of retinoid X receptor alpha signaling (AID 588544)", "conditions": "HEK293T RXRa-UAS-bla, beta-lactamase reporter, 18 h; 530 nm emission", "values": [
      {"smiles": "O=P(O)(O)CN(CP(=O)(O)O)CP(=O)(O)O", "max response": "-17.9%"},
      {"smiles": "C=CCC1=C(C)C(OC(=O)C2C(C=C(C)C)C2(C)C)CC1=O", "note": "(stereo not given)", "max response": "-10.5%"},
      {"smiles": "Nc1ccccc1C(=O)OCCc1ccccc1", "max response": "17.5%"},
      {"smiles": "CC1(C)C(C=C(Cl)Cl)C1C(=O)OCc1cccc(Oc2ccccc2)c1", "note": "(stereo not given)", "max response": "27.9% and -12.2%"},
      {"smiles": "Nc1cc(Cl)ccc1O", "max response": "14.5%"},
      {"smiles": "CCOP(=O)(OCC)Oc1cc(C)nc(C(C)C)n1", "max response": "2.1%"},
      {"smiles": "CCOP(=S)(NC(C)C)Oc1ccccc1C(=O)OC(C)C", "note": "(stereo not given)", "max response": "7.54%"},
      {"smiles": "CCOc1ccc(NC(=O)OC(C)C)cc1OCC", "max response": "2.05%"},
      {"smiles": "Clc1ccc([C@@]2(Cn3cncn3)C[C@@H](Br)CO2)c(Cl)c1", "max response": "0.585%"},
      {"smiles": "CCSC(C)CC1CC(=O)C(/C(CC)=N/OC/C=C/Cl)=C(O)C1", "note": "(stereo not given)", "max response": "15.6%"},
      {"smiles": "CC1CCCCC1NC(=O)Nc1ccccc1", "note": "(stereo not given)", "max response": "7.9%"},
      {"smiles": "COC1=CC(=O)O[C@@H](/C=C/c2ccc3c(c2)OCO3)C1", "max response": "36.8%"},
      {"smiles": "CCOP(=S)(OCC)Oc1nc(Cl)n(C(C)C)n1", "max response": "7.92%"},
      {"smiles": "CCO/N=C(\\CC)C1=C(O)CC(c2c(C)cc(C)cc2C)CC1=O", "note": "(stereo not given)", "max response": "-15.8%"},
      {"smiles": "CCOP(=S)(OCC)SC(CCl)N1C(=O)c2ccccc2C1=O", "note": "(stereo not given)", "max response": "9.31%"},
      {"smiles": "CCOP(=S)(OCC)SCn1nnc2ccccc2c1=O", "max response": "16%"},
      {"smiles": "Cc1cccc(O)c1", "max response": "-9.62%"},
      {"smiles": "CCCCC(O)(Cn1cncn1)c1ccc(Cl)cc1Cl", "note": "(stereo not given)", "max response": "20.4%"},
      {"smiles": "O=S1OC[C@@H]2[C@H](CO1)[C@@]1(Cl)C(Cl)=C(Cl)[C@]2(Cl)C1(Cl)Cl", "note": "(stereo not given in full)", "max response": "3.34%"},
      {"smiles": "COC(=O)C(c1ccccc1)C1CCCCN1", "note": "(stereo not given)", "max response": "6.11%"},
      {"smiles": "C=CC1(C)OC(=O)N(c2cc(Cl)cc(Cl)c2)C1=O", "note": "(stereo not given)", "max response": "2.73%"},
      {"smiles": "CN(C)c1ccc(Cc2ccc(N(C)C)cc2)cc1", "max response": "-2.44% and 1.76%"},
      {"smiles": "CCCC(C)(COC(N)=O)COC(N)=O", "max response": "-18.3%"},
      {"smiles": "O=C(O)COc1nc(Cl)c(Cl)cc1Cl", "max response": "-1.68%"},
      {"smiles": "CNc1cnn(-c2cccc(C(F)(F)F)c2)c(=O)c1Cl", "max response": "6.95%"},
      {"smiles": "CC1(C)[C@@H](C=C(Cl)Cl)[C@@H]1C(=O)OCc1cccc(Oc2ccccc2)c1", "max response": "2.62%"},
      {"smiles": "CCCOc1nn(C(=O)NS(=O)(=O)c2ccccc2C(=O)OC)c(=O)n1C", "max response": "-11.3%"},
      {"smiles": "ClC1=C(Cl)C2(Cl)C3C(Cl)C=CC3C1(Cl)C2(Cl)Cl", "note": "(stereo not given)", "max response": "19.2%"},
      {"smiles": "CCC[CH2][Sn]([CH2]CCC)([CH2]CCC)[CH2]CCC", "max response": "1.38%"},
      {"smiles": "COc1ccccc1[N+](=O)[O-]", "max response": "-6.79%"},
      {"smiles": "CCOc1ccc(C(C)(C)COCc2cccc(Oc3ccccc3)c2)cc1", "max response": "-13.4%"},
      {"smiles": "CCOP(=O)(OCC)SCSP(=S)(OCC)OCC", "max response": "4.08%"},
      {"smiles": "C#CCN1CC(=O)N(COC(=O)[C@@H]2[C@@H](C=C(C)C)C2(C)C)C1=O", "max response": "-20.9%"},
      {"smiles": "O=C(O)COc1ccc(Cl)cc1Cl", "max response": "39.9% and 41.5% and 22%"},
      {"smiles": "COC(=O)c1ccccc1S(=O)(=O)NC(=O)Nc1nc(C)nc(OC)n1", "max response": "5.75%"},
      {"smiles": "Cn1cc(-c2ccccc2)c(=O)c(-c2cccc(C(F)(F)F)c2)c1", "max response": "13.7%"},
      {"smiles": "O=S(=O)(c1ccc(Cl)cc1)c1ccc(Cl)cc1", "max response": "2.66%"},
      {"smiles": "CCOP(=S)(OCC)Oc1cnc2ccccc2n1", "max response": "-0.423%"},
      {"smiles": "COCc1cnc(C2=NC(C)(C(C)C)C(=O)N2)c(C(=O)O)c1", "note": "(stereo not given)", "max response": "-12.4%"},
      {"smiles": "c1ccc(-c2ccc(-c3ccccc3)cc2)cc1", "max response": "-2.81%"}
    ]}
  ]
}
